Assay results reported in paper PMC3796317.
Results are given in words; binding and its absence hold for the method and conditions named. Binding seen in cells or lysates may run through a third protein. Some binding calls cover weakened binding; strength is not graded here. For some of these results: Tags and fused reporters may be left off the sequences shown.

Sequences of proteins named here, by UniProt entry; tags and fusion partners are left off.
UniProt P30052: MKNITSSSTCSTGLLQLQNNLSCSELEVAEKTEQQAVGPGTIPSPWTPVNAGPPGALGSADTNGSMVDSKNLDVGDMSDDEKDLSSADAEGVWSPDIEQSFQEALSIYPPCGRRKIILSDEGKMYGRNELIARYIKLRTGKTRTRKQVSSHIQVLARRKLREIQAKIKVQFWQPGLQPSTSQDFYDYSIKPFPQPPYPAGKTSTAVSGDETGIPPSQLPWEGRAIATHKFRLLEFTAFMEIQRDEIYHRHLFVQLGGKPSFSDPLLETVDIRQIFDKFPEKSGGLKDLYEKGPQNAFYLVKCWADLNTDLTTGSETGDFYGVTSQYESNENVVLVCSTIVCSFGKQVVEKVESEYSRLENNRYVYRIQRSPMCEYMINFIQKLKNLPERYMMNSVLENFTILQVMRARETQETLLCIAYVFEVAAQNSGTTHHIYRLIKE
UniProt Q9VF03: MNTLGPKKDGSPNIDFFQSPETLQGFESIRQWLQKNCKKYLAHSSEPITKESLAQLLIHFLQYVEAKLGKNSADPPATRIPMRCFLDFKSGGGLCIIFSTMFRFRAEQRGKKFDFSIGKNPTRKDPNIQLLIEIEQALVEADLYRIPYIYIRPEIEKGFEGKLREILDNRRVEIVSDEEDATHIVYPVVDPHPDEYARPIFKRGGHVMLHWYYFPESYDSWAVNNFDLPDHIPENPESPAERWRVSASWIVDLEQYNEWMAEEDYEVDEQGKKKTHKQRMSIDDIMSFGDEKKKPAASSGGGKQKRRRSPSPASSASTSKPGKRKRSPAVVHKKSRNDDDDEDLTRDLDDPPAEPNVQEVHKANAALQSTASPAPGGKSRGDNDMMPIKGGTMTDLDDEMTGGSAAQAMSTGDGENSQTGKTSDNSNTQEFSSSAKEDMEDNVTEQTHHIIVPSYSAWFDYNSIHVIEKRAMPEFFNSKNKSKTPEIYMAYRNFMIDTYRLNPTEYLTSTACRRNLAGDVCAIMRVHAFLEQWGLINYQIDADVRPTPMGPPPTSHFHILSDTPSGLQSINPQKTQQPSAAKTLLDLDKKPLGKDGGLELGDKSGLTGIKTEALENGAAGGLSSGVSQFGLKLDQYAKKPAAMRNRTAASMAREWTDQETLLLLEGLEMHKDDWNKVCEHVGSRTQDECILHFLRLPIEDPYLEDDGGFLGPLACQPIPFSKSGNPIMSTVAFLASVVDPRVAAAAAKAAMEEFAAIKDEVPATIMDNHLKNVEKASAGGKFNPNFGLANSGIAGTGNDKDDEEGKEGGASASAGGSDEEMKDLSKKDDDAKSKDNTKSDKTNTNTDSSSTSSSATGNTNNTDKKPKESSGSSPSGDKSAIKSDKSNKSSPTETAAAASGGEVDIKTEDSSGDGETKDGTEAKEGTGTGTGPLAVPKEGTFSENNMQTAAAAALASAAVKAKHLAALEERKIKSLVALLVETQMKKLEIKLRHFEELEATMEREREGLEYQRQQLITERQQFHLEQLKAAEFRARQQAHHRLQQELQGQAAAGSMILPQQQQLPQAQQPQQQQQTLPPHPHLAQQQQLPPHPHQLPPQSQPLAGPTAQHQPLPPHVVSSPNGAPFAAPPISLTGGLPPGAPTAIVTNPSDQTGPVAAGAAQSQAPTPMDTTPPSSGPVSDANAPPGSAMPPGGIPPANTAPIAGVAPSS
UniProt P25439: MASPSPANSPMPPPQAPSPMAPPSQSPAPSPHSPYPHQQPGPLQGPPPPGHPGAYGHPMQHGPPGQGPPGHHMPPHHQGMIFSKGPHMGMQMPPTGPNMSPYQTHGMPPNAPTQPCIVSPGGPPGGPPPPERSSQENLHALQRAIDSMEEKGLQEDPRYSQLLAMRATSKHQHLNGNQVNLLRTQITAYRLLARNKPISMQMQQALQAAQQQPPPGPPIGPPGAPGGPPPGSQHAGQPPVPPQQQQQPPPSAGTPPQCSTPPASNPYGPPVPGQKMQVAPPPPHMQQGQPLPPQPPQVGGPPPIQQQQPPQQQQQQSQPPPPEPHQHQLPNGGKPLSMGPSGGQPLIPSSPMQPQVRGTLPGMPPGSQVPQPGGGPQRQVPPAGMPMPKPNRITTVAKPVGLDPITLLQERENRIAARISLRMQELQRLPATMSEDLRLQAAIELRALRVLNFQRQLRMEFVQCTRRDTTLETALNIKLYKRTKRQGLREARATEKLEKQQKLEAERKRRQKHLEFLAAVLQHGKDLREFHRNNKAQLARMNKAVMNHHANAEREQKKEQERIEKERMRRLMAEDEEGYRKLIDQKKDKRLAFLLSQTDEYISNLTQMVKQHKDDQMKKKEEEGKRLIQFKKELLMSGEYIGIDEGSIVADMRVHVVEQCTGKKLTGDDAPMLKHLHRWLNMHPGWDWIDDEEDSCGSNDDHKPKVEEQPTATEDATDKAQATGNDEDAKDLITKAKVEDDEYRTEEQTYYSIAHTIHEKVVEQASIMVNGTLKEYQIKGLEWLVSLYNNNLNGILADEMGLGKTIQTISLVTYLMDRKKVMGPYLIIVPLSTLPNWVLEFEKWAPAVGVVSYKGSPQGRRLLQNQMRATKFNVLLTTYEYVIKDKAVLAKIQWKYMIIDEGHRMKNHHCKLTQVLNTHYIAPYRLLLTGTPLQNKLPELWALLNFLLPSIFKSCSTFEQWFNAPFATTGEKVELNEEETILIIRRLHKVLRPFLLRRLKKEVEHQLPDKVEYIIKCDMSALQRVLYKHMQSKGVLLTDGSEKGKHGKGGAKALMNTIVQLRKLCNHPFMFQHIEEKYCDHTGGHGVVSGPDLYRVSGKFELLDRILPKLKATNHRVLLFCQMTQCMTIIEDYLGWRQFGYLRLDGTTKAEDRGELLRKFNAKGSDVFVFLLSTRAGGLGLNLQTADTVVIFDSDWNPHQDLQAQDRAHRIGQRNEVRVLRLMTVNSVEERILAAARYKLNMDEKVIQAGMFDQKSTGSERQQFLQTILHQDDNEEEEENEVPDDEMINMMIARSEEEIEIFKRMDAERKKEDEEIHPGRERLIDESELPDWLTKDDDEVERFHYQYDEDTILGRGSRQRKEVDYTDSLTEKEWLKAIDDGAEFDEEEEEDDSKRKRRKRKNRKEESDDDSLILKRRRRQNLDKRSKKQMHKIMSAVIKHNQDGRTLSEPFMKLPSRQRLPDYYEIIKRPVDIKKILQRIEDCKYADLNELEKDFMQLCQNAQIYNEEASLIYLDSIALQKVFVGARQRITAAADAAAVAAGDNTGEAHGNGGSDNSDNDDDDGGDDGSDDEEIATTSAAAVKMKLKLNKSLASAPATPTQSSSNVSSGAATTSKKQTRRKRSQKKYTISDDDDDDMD
UniProt Q8IN94: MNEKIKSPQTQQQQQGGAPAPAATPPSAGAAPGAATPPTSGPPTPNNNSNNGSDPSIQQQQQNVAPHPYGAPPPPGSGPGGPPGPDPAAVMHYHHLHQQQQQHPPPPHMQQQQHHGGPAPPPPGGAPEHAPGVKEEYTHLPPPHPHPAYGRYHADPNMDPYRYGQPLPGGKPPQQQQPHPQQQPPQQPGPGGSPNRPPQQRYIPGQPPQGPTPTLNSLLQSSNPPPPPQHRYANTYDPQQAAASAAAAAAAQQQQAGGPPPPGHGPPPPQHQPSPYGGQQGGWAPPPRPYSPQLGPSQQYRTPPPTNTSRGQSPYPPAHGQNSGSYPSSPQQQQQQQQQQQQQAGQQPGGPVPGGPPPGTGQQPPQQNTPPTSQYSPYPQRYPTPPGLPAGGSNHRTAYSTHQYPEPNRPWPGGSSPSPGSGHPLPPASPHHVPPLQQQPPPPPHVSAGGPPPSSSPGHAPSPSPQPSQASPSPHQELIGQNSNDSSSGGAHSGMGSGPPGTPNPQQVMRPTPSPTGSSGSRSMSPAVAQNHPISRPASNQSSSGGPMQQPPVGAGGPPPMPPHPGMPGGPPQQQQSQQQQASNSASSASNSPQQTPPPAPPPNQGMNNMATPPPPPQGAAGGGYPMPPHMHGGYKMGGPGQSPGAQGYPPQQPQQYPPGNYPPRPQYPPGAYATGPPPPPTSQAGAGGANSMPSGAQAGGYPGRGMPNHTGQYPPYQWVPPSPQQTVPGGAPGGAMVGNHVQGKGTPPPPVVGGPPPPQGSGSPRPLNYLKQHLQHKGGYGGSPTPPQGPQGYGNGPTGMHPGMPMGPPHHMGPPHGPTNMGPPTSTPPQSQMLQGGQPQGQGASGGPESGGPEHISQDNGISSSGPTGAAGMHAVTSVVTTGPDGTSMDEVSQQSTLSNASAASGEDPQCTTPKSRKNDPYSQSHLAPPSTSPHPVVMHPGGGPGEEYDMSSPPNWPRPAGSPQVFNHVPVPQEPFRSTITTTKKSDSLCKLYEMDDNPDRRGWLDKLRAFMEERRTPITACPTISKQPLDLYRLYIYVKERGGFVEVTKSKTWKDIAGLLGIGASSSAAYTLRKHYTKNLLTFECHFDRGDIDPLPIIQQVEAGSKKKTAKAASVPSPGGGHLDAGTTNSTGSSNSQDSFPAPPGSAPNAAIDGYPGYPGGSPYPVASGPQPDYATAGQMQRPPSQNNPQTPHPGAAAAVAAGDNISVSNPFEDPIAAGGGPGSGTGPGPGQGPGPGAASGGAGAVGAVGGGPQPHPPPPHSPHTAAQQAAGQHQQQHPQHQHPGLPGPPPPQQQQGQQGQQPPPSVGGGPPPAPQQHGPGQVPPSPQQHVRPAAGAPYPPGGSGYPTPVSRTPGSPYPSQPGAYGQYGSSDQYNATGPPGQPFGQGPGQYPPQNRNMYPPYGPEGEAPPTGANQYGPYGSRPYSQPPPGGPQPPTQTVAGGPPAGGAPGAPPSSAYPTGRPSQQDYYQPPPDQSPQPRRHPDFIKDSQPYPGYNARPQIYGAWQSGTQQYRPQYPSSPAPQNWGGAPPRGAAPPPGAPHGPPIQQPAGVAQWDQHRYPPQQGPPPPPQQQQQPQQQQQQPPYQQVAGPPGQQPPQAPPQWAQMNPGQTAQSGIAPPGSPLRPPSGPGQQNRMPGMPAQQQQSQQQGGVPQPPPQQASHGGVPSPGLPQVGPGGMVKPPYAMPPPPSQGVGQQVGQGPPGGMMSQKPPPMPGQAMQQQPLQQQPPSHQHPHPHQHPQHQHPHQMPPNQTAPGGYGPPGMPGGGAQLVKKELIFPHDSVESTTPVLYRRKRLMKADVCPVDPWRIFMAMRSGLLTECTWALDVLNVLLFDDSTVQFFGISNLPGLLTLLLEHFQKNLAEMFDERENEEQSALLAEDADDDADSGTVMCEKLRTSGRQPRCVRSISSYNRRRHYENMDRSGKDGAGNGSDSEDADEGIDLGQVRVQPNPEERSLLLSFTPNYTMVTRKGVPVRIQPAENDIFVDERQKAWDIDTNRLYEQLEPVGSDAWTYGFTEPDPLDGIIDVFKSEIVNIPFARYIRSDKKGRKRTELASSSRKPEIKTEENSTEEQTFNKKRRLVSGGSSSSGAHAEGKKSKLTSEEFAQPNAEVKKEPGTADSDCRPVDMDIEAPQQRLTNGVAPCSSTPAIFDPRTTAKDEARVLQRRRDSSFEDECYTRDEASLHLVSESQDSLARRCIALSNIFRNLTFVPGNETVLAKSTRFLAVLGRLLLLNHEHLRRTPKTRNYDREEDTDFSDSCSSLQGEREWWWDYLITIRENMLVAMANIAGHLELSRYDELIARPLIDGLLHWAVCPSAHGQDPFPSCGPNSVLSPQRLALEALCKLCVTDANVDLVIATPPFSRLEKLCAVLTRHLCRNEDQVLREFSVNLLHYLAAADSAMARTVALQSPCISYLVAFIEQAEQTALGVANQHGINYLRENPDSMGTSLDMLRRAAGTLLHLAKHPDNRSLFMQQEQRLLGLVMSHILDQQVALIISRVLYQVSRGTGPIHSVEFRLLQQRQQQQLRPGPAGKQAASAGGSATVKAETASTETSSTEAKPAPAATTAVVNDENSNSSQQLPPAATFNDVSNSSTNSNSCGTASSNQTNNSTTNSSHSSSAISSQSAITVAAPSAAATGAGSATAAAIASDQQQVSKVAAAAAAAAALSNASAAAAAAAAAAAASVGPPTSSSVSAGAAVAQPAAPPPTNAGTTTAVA

Experiments:
[1] = molecular target: T1, Myc-tagged Yki (Myc–Yki) (Drosophila) (UniProt Q45VV3); assay: co-IP; tagged proteins coexpressed in S2 cells (pUAST vectors with ubiquitin-Gal4), immunoprecipitation with anti-tag antibodies and Western blot
T1 sequence: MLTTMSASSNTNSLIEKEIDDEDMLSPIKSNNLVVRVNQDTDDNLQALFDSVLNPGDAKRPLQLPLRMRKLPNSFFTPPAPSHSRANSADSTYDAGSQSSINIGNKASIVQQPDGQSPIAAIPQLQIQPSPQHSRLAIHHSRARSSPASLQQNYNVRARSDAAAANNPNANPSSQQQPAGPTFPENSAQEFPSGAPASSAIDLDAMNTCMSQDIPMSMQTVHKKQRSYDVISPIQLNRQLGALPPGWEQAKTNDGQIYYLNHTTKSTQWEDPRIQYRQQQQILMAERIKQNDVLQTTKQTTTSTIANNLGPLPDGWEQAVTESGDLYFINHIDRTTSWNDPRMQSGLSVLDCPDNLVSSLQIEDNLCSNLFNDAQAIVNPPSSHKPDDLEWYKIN

[2] = molecular target: HA-tagged Sd (HA–Sd) (Drosophila) (UniProt P30052); assay: as above
[3] = molecular target: Mor, coexpressed with Sd in S2 cells (Drosophila) (UniProt Q9VF03); assay: as above
[4] = molecular target: Brahma (Brm), endogenous (Drosophila (endogenous in S2 cells)) (UniProt P25439); assay: co-IP; S2 cells transfected with HA–Sd; HA–Sd coimmunoprecipitated with endogenous Brm
[5] = molecular target: HA-tagged Sd (HA–Sd) (Drosophila) (UniProt P30052); assay: co-IP; S2 cells; Sd with Brm, seen in one direction; the legend does not tell whether Brm was coexpressed or which protein was precipitated
[6] = molecular target: V5-tagged Brm (Brm–V5) (Drosophila) (UniProt P25439); assay: co-IP; tagged proteins coexpressed in S2 cells (pUAST vectors with ubiquitin-Gal4), immunoprecipitation with anti-tag antibodies and Western blot

For “V5-tagged Brm (Brm–V5) (from UniProt P25439 1-1638)”, which binding [1] is on record?
Its binding is “binds”.

How did the binding [2] turn out when “Mor, coexpressed with Sd in S2 cells (from UniProt Q9VF03 1-1209)” was run?
The binding was “binds”.

How did the binding [3] turn out when “HA-tagged Sd (HA–Sd) (from UniProt P30052 1-440)” was run?
The binding was “binds”.

What about the binding [4] of the same molecule?
Its binding is “binds”.

For “Brm, as in the co-IP with Sd of Figure 4—figure supplement 1A (from UniProt P25439 1-1638)”, which binding [5] is on record?
The binding was “binds”.

How did the binding [2] turn out when “Osa, coexpressed with Sd in S2 cells (from UniProt Q8IN94 1-2716)” was run?
Its binding is “binds”.

B1: Myc-tagged Yki (Myc–Yki) (protein, UniProt Q45VV3 1-395)
chain: MLTTMSASSNTNSLIEKEIDDEDMLSPIKSNNLVVRVNQDTDDNLQALFDSVLNPGDAKRPLQLPLRMRKLPNSFFTPPAPSHSRANSADSTYDAGSQSSINIGNKASIVQQPDGQSPIAAIPQLQIQPSPQHSRLAIHHSRARSSPASLQQNYNVRARSDAAAANNPNANPSSQQQPAGPTFPENSAQEFPSGAPASSAIDLDAMNTCMSQDIPMSMQTVHKKQRSYDVISPIQLNRQLGALPPGWEQAKTNDGQIYYLNHTTKSTQWEDPRIQYRQQQQILMAERIKQNDVLQTTKQTTTSTIANNLGPLPDGWEQAVTESGDLYFINHIDRTTSWNDPRMQSGLSVLDCPDNLVSSLQIEDNLCSNLFNDAQAIVNPPSSHKPDDLEWYKIN
B1 was tested. Which binding [6] did it give?
Its binding is “binds”.
